# Data from patent publication US9714401B2, “Particles for malodor reduction” (The Procter & Gamble Company, priority 2015, dated 2017).
# Assay: Fragrance Fidelity Index (FFI), expert graders smelling treated fabric swatches against ethyl vanillin reference scale
# [1] = Conc 50 ppm test material on swatch
# [2] = test material Conc 10 ppm on fabric swatch
# [3] = test material Conc 50 ppm on fabric swatch
# [4] = Conc 10 ppm test material on swatch
Structure (SMILES),FFI [1],FFI [2],FFI [3],FFI [4]
CCOC(=O)OC1C(C)CCC(C)C1C (centres unmarked) [Material 1005],0.5,,,
"CCC(=O)OC1CC2C3C=CCC3C1C2(C)C (centres unmarked) [8,8-dimethyl-3a,4,5,6,7,7a-hexahydro-1H-4,7-methanoinden-6-yl propionate]",,0,0,
CC(CCO)CCc1ccccc1 (centres unmarked) [Material 962],0.5,,,0
CC(C)(C)C1CCCCC1 [4-tert-butyl cyclohexane],0.3,,,0
CCCCCCCCCCCC(=O)OCC [Material 391],0.3,,,
CC(=O)OC1CC2CC1C1CC=CC21 (centres unmarked) [Material 281],0.5,,,0
CC1(C)C2CCC3(C2)C1C(=O)CCC3(C)C (centres unmarked) [Material 1149],0.8,,,0
CCC(O)COC1CCCCC1C(C)(C)C (centres unmarked) [Material 677],1.8,,,0
"O=C1CCC2CCCCC2O1 (centres unmarked) [3,4,4a,5,6,7,8,8a-octahydrochromen-2-one]",0,,,0
COC(=O)OC1CCC=CCCC1 (centres unmarked) [Material 1139],1.0,,,0
C=CC(C)=CCC=C(C)C [Material 524],0,,,
CC1(C)CCc2ccc(CCC=O)cc21 [Material 261],1.3,,,0
CCCCCCCCCCCCO [Material 174],0.5,,,
CC(=O)OCCCCCCC(C)C [Material 204],0,,,0
C=C1CCC2OC2(C)CCC2C1CC2(C)C (centres unmarked) [Material 1148],0.5,,,
CC1CCC2(C(C)C)CC(C)OC2C1 (centres unmarked),,,0.3,
CCCCCCCCCCCO [Undecanol],0.8,,,
CC1(C)CCc2ccc(CCC=O)cc21,,0,0.5,
